Experimental data as given in the supplement of paper PMC12823440, “Inhibitors supercharge kinase turnover through native proteolytic circuits” (Nature, 2025).
Structures can show the parent of a compound that is named as a salt. This is one part of the list. Hit calls seldom repeat between salt and free forms of one compound.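 Kinases were expressed as nanoluciferase fusions in K562 cells and luminescence was read every 4 h between 2 and 18 h as percent of control, DMSO set to 100% and a positive control to 0%. A time point counts as decreased when the signal drops significantly (2 sigma). The hit call is the authors' own, does not follow from the count of time points alone, and its rule is not shown.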

Sequences of proteins named here, by UniProt entry; tags and fusion partners are left off. A change or cut given only in a name is not applied to a line headed by its entry.
UniProt Q16288, whole entry, looked up: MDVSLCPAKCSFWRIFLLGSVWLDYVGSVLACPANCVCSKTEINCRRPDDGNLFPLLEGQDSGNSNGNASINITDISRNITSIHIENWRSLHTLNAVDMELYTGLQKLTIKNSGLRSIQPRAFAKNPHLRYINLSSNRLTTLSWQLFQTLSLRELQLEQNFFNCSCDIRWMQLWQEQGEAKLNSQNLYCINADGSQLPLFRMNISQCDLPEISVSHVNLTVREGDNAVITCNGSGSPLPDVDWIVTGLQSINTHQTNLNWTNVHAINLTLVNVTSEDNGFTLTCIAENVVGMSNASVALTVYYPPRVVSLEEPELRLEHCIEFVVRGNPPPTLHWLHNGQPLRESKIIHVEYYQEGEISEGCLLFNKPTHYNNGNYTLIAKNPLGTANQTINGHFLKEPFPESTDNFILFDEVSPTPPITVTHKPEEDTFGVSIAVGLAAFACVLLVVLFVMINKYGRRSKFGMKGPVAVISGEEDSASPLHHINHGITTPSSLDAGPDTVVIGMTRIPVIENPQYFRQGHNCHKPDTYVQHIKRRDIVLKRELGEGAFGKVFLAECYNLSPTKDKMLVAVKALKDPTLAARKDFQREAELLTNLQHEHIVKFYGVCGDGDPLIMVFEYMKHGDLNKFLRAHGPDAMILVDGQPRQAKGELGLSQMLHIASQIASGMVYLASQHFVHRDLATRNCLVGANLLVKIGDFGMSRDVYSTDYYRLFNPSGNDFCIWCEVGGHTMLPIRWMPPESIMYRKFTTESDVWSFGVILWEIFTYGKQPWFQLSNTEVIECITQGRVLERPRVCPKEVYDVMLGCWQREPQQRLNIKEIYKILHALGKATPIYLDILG
UniProt O96013: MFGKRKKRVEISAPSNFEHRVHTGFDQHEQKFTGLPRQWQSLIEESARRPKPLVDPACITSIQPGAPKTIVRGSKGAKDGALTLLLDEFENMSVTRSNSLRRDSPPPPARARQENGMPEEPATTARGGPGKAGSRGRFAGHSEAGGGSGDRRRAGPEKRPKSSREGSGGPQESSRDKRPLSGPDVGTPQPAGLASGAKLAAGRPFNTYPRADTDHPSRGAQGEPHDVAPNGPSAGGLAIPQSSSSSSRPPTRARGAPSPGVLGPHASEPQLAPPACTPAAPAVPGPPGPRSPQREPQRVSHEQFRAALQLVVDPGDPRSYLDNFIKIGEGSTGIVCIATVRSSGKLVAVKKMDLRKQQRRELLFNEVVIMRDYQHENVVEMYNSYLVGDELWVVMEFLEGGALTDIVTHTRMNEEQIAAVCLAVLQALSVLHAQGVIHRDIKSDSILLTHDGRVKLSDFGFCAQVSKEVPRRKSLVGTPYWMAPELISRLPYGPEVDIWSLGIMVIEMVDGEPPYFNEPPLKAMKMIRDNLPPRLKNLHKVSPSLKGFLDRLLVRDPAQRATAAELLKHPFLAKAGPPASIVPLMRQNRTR
UniProt Q96KB5: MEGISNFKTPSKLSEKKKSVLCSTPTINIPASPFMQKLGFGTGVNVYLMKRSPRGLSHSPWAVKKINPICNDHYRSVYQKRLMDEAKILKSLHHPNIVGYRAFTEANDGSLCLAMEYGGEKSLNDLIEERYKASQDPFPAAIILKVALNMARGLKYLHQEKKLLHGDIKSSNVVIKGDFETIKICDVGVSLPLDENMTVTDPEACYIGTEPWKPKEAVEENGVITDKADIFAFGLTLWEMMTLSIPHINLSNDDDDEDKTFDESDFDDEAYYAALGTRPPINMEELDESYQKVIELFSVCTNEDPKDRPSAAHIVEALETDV
UniProt P09619, whole entry: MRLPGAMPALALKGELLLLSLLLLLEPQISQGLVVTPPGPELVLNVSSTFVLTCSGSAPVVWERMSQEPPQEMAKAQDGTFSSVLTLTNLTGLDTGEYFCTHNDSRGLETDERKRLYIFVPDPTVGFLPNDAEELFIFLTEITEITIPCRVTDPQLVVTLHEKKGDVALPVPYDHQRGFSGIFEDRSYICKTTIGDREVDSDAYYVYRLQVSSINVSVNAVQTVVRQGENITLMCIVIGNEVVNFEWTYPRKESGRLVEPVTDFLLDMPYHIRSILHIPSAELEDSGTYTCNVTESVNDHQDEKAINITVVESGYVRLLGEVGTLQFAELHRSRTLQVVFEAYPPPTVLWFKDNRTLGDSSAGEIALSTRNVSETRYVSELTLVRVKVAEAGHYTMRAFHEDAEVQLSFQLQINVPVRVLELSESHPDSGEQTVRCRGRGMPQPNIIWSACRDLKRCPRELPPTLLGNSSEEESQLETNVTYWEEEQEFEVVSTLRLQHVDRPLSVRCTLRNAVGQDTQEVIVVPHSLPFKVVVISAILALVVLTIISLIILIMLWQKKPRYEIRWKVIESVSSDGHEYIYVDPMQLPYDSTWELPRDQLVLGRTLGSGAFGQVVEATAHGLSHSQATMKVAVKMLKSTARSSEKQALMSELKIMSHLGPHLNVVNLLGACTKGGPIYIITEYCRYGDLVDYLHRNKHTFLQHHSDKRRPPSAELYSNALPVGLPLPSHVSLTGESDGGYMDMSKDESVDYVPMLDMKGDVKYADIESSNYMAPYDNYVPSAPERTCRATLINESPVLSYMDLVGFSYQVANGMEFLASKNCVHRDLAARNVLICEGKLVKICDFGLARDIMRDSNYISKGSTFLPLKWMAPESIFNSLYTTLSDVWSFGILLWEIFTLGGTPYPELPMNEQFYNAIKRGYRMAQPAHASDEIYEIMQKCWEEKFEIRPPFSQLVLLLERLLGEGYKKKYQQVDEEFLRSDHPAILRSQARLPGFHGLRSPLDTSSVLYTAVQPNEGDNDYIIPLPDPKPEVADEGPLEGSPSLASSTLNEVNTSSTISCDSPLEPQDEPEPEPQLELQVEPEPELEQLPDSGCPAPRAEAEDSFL
UniProt Q15118, whole entry, looked up: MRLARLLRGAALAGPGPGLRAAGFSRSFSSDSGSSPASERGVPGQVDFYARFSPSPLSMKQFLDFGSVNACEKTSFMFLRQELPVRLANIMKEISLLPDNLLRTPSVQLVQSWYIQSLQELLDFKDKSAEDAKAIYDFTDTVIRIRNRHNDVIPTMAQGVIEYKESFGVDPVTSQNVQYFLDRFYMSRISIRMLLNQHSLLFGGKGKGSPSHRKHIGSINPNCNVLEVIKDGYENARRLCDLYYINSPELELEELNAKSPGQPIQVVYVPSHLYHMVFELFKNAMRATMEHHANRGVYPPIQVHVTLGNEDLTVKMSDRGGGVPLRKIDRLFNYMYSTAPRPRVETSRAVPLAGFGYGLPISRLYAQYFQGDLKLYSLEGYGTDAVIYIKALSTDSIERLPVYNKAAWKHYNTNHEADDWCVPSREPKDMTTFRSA
UniProt O15530: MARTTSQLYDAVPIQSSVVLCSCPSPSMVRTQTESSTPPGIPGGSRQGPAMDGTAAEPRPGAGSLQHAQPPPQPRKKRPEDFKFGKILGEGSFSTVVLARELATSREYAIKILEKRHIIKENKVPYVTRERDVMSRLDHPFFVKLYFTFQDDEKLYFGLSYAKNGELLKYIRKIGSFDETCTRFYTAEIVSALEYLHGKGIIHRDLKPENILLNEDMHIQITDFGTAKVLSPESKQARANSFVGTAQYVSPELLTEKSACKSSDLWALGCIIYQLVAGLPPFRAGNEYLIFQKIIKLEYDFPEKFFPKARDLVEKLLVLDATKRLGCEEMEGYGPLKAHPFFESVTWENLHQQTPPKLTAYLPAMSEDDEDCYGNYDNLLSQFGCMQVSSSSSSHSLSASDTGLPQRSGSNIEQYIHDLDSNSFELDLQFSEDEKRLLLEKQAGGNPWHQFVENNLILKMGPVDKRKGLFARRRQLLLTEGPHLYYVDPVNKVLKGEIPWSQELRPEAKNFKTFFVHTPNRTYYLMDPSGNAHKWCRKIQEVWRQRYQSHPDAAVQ
UniProt P42356, whole entry, looked up: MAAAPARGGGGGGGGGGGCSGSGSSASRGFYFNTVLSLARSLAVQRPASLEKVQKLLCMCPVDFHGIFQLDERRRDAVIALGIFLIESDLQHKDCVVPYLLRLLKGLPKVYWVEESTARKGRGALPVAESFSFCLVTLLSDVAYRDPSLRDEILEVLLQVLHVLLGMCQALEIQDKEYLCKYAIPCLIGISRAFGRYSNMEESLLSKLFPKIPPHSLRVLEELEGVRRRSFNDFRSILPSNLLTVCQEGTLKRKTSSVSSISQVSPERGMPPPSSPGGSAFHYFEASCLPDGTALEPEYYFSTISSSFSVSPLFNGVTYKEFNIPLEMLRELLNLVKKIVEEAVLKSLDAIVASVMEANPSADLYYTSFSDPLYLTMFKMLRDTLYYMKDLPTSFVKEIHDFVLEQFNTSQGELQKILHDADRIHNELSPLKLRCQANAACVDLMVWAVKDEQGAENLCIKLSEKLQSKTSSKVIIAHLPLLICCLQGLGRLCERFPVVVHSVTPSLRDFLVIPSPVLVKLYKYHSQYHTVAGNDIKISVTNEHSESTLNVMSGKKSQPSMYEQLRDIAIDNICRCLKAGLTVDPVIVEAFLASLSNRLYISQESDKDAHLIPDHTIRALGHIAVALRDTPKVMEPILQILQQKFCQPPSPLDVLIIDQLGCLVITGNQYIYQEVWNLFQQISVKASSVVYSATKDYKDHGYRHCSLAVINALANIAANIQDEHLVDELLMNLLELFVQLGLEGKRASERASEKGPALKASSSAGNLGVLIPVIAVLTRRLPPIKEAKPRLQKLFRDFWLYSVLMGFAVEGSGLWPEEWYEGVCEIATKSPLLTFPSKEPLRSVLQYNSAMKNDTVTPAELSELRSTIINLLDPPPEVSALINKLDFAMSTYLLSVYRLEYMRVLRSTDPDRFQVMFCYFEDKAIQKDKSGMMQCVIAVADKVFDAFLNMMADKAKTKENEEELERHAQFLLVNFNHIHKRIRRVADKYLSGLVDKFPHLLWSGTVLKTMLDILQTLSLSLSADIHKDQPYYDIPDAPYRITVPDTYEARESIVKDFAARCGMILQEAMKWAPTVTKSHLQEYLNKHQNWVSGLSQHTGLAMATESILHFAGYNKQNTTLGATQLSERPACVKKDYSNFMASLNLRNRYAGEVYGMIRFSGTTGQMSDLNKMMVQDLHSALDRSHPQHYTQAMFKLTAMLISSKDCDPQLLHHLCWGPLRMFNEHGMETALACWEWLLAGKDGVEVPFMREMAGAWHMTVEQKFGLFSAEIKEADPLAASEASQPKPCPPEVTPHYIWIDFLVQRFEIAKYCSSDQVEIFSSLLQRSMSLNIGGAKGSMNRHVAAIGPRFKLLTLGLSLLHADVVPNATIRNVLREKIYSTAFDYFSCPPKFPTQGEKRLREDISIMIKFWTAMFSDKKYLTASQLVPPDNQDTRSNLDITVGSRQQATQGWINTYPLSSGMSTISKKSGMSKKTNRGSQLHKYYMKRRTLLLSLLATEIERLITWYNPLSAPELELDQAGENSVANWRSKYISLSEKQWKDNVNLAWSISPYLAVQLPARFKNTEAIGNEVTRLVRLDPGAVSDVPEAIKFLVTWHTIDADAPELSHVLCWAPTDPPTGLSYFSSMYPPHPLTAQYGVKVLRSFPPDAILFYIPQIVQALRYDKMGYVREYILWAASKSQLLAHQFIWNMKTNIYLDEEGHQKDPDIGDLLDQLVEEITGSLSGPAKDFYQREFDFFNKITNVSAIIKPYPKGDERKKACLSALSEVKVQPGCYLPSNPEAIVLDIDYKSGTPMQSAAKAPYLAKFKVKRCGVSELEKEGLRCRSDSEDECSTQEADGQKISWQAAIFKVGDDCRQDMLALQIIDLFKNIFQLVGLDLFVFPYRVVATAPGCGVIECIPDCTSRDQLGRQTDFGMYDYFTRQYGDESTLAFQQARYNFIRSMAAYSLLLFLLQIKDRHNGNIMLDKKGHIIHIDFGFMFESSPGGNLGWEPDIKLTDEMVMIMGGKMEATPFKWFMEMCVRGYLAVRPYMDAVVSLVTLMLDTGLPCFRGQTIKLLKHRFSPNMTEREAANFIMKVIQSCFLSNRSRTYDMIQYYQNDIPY
UniProt P53350, whole entry: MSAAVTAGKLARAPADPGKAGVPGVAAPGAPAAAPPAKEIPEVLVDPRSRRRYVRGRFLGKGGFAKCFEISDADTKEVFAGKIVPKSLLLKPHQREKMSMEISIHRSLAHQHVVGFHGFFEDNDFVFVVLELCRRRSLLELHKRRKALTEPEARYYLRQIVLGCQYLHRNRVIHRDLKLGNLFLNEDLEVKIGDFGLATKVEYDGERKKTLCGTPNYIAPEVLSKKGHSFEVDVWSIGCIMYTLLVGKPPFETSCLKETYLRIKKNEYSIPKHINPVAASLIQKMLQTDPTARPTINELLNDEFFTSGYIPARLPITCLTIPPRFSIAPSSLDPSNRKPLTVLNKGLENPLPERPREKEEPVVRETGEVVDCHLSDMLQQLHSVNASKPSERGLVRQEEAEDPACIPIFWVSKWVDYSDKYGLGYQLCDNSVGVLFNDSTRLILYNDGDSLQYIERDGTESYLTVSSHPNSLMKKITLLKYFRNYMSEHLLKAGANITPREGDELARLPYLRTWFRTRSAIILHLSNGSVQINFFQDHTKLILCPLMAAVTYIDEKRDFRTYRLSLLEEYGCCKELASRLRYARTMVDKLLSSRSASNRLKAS

How the values were obtained:
Experiment in all cases: number of time points (of 5) at which kinase-Nluc abundance scored as decreased, DMSO-normalised (count); higher = more persistent destabilization
Conditions in all cases: K562; 2-18 h
NTRK3 = NTRK3 (UniProt Q16288)
PAK4 = PAK4 (UniProt O96013)
PBK = PBK (UniProt Q96KB5)
PDGFRB = PDGFRB (UniProt P09619)
PDK1 = PDK1 (UniProt Q15118)
PDPK1 = PDPK1 (UniProt O15530)
PIK4CA = PIK4CA (UniProt P42356)
PIK4CB = PIK4CB (UniProt Q9UBF8)
PLK1 = PLK1 (UniProt P53350)
PRKAA1 = PRKAA1 (UniProt Q13131)

Measured: number of time points

CC(C)(O)[C@@H]1CC[C@](C)([C@H]2[C@@H](O)C[C@@]3(C)[C@@H]4C[C@H](O[C@@H]5O[C@H](CO)[C@@H](O)[C@H](O)[C@H]5O)[C@H]5C(C)(C)[C@@H](O[C@@H]6OC[C@@H](O)[C@H](O)[C@H]6O[C@@H]6O[C@H](CO)[C@@H](O)[C@H](O)[C@H]6O)CC[C@@]56C[C@@]46CC[C@]23C)O1 [Astragaloside VI] (10 µM)
0: all assays above

NC(=O)c1ccc(-c2cnn3ccc(NCc4cccnc4)nc23)cc1 (2.5 µM)
0: all assays above

CCC(C)(C)C(=O)N(O)Cc1ccccc1 (10 µM)
0: all assays above

O=[N+]([O-])c1ccc(Sc2cccc[n+]2[O-])c2nonc12 (2.5 µM)
0: all assays above

C=CC(=O)Nc1cccc(Oc2nc(Nc3ccc(N4CCN(C)CC4)cc3)nc3ccoc23)c1 [Poseltinib] (10 µM)
0: all assays above

O=C(CO)N1CCC(c2n[nH]c(-c3ccc(Cl)cc3)c2-c2ccncn2)CC1 (10 µM)
0: all assays above

COC(=O)N[C@@H](C)CNc1nccc(-c2cn(C(C)C)nc2-c2cc(Cl)cc(NS(C)(=O)=O)c2F)n1 [Encorafenib] (10 µM)
0: all assays above

C=CC(=O)N1CCC[C@@H](n2nc(C(=O)Nc3ccc(CC(=O)N(C)C)c(C)c3C)c3c(N)ncnc32)C1 (10 µM)
0: all assays above

Cc1ccc(-c2ncn(-c3ccc(Nc4nccc(-c5cccc(N6CCOCC6)c5)n4)cc3)n2)cn1 (10 µM)
0: all assays above

C[C@@H]1C[C@H]2O[C@@]3(O[C@@H]2C(C)(C)O)[C@H](O)[C@@]2(C)[C@@H]4CC[C@H]5C(C)(C)[C@@H](O[C@@H]6OC[C@H](O)[C@H](O)[C@H]6O)CC[C@@]56C[C@@]46CC[C@]2(C)[C@@H]13 [Cimiracemoside C] (10 µM)
0: all assays above

CCN(C)C(=O)c1ccc2c(C(=Nc3ccc(CN4CCCCC4)cc3)c3ccccc3)c(O)[nH]c2c1 (2.5 µM)
0: all assays above

CCOc1c([C@H](C)n2nc(C)c3c(N)ncnc32)cc(Cl)c(F)c1[C@@H]1CNC(=O)C1 [Parsaclisib (hydrochloride)] (10 µM)
0: all assays above

C[C@@H]1COCCN1c1cc(=O)n2c(n1)N(Cc1cncc(Cl)c1)[C@H](C(F)(F)F)CC2 (10 µM)
2: PIK4CB
0: all other assays above

8 neighbouring records from above, quoted:
CCC(C)(C)C(=O)N(O)Cc1ccccc1 (10 µM)
0: all assays above

O=[N+]([O-])c1ccc(Sc2cccc[n+]2[O-])c2nonc12 (2.5 µM)
0: all assays above

C=CC(=O)Nc1cccc(Oc2nc(Nc3ccc(N4CCN(C)CC4)cc3)nc3ccoc23)c1 [Poseltinib] (10 µM)
0: all assays above

O=C(CO)N1CCC(c2n[nH]c(-c3ccc(Cl)cc3)c2-c2ccncn2)CC1 (10 µM)
0: all assays above

COC(=O)N[C@@H](C)CNc1nccc(-c2cn(C(C)C)nc2-c2cc(Cl)cc(NS(C)(=O)=O)c2F)n1 [Encorafenib] (10 µM)
0: all assays above

C=CC(=O)N1CCC[C@@H](n2nc(C(=O)Nc3ccc(CC(=O)N(C)C)c(C)c3C)c3c(N)ncnc32)C1 (10 µM)
0: all assays above

Cc1ccc(-c2ncn(-c3ccc(Nc4nccc(-c5cccc(N6CCOCC6)c5)n4)cc3)n2)cn1 (10 µM)
0: all assays above

C[C@@H]1C[C@H]2O[C@@]3(O[C@@H]2C(C)(C)O)[C@H](O)[C@@]2(C)[C@@H]4CC[C@H]5C(C)(C)[C@@H](O[C@@H]6OC[C@H](O)[C@H](O)[C@H]6O)CC[C@@]56C[C@@]46CC[C@]2(C)[C@@H]13 [Cimiracemoside C] (10 µM)
0: all assays above

Further compounds.

Nc1nc2cc(-c3ccc4ncc(C(=O)N5CCOCC5)n4c3)ccc2o1 [Serabelisib] (10 µM)
0: all assays above

O=C1NCCCc2c1oc1ccc(O)cc21 (10 µM)
0: all assays above

CCN1C(=O)CNc2ncc(-c3ccc(-c4nc[nH]n4)nc3C)nc21 [CC-115 (hydrochloride)] (2.5 µM)
4: PDPK1
3: NTRK3 | PLK1 | PRKAA1
2: PDGFRB | PIK4CA | PIK4CB
0: all other assays above

C[C@@H]1COCCN1c1cc(C2([S@](C)(=N)=O)CC2)nc(-c2cc[nH]c3nccc2-3)n1 [Ceralasertib] (2.5 µM)
0: all assays above

CC[C@H](Nc1ncnc2[nH]cnc12)c1oc2ccccc2c(=O)c1-c1cccc(F)c1 [Tenalisib] (10 µM)
0: all assays above

Cn1cc(-c2cc3c(N4CCN(c5ncc([C@@](C)(N)c6ccc(F)cc6)cn5)CC4)ncnn3c2)cn1 [Avapritinib] (2.5 µM)
0: all assays above

NS(=O)(=O)c1ccc(N2N=C(c3ccccc3)CC2c2ccccc2)cc1 (stereo not given) (10 µM)
0: all assays above

CC(CCc1ccccn1)(CCc1ccccn1)C(=O)c1ccccc1 (10 µM)
0: all assays above

O=C1NC(=O)C(c2cn(-c3ccccc3)nc2-c2ccc(F)cc2)N1 (stereo not given) (10 µM)
1: PLK1
0: all other assays above

COc1cc2ncnc(Nc3ccc(NC(=O)c4ccccc4)cc3)c2cc1OC [Aurora kinase inhibitor-2] (2.5 µM)
1: PDPK1
0: all other assays above

COc1nc(-c2cccc3c2OCCO3)ccc1Nc1ccc(CN(C)C)cc1 [RAS inhibitor Abd-7] (10 µM)
0: all assays above

CC(C)(C)c1cc(C(c2cc3c(cc2O)OCO3)N2CCOCC2)cc(C(C)(C)C)c1O (stereo not given) (2.5 µM)
0: all assays above

CN1CC[C@H](c2c(O)cc(O)c3c(=O)cc(-c4ccc(C(F)(F)F)cc4Cl)oc23)[C@H]1CO [(2S,3R)-Voruciclib (hydrochloride)] (2.5 µM)
0: all assays above

CC[C@@H]1C(=O)N(C)c2cnc(Nc3ccc(C(=O)N[C@H]4CC[C@H](N5CCN(CC6CC6)CC5)CC4)cc3OC)nc2N1C(C)C [Volasertib] (2.5 µM)
0: all assays above

C[C@H]1[C@H](OC(=O)CCC(=O)O)O[C@@H]2O[C@@]3(C)CC[C@H]4[C@H](C)CC[C@@H]1[C@@]24OO3 [Artesunate] (2.5 µM)
1: PDPK1
0: all other assays above

CN(CC(=O)N(Cc1ccc(C2CCCCC2)cc1)c1ccc(C(=O)O)c(O)c1)S(=O)(=O)c1c(F)c(F)c(F)c(F)c1F (2.5 µM)
0: all assays above

C=C(F)C(=O)N1CCN(c2nc(OC[C@@H]3CCCN3C)nc3c2CCN(c2cccc4cccc(Cl)c24)C3)C[C@@H]1CC#N (2.5 µM)
0: all assays above

COc1cc(N2CCC(N(C)C)CC2)ccc1Nc1ncc(Cl)c(Nc2ccccc2P(C)(C)=O)n1 (2.5 µM)
0: all assays above
